Consider 1 molecule from PMC5366886, “Structure of the Cyanuric Acid Hydrolase TrzD Reveals Product Exit Channel” (Scientific Reports, 2017).

No constants are given. Whether binding was seen depends on the method and setting. Some binding calls cover weakened binding; strength is not graded here.

The target in this assay is TrzD, a cyanuric acid hydrolase from Acidovorax citrulli (Acidovorax citrulli) (UniProt P0A3V4). As to the kind of experiment: crystal structure; crystallised with 10 mM cyanuric acid, hanging drop, 20 °C; space group I222, one monomer in the asymmetric unit; tetramer assembly analysed with PISA; both purified.

B1: TrzD, a cyanuric acid hydrolase from Acidovorax citrulli (enzyme, UniProt P0A3V4 1-370, looked up)
chain: MQAQVFRVPMSNPADVSGVAKLIDEGVIRAEEVVCVLGKTEGNGCVNDFTRGYTTLAFKVYFSEKLGVSRQEVGERIAFIMSGGTEGVMAPHCTIFTVQKTDNKQKTAAEGKRLAVQQIFTREFLPEEIGRMPQVTETADAVRRAMREAGIADASDVHFVQVKCPLLTAGRMHDAVERGHTVATEDTYESMGYSRGASALGIALALGEVEKANLSDEVITADYSLYSSVASTSAGIELMNNEIIVMGNSRAWGGDLVIGHAEMKDAIDGAAVRQALRDVGCCENDLPTVDELGRVVNVFAKAEASPDGEVRNRRHTMLDDSDINSTRHARAVVNAVIASIVGDPMVYVSGGSEHQGPAGGGPVAVIARTA
notes: TrzD, cyanuric acid hydrolase of Acidovorax citrulli; full-length trzD gene in pET28b(+); 370 amino acids, ~39.5 kDa; source: E. coli BL21 (DE3), purified (Ni-NTA, Superdex-200 gel filtration); not shown: His-tag, N-terminal, kept
As to B1, the binding result is listed as “binds”.
